Reference: the supplement of paper PMC12889115
The list shows a part of the results. Values are raw readings; no control value is given beside them.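 First-pass screen: polymyxin B was added at a level that permeabilizes the Salmonella outer membrane while sparing the inner membrane. DMSO wells, with and without polymyxin B, defined maximum growth. Because plates differed from one another, each plate's data were ranked separately and the compounds with the lowest OD600 were carried forward as hits.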

Tested on: Salmonella enterica serovar Typhimurium SL1344
Test: bacterial growth OD600 after 18 h with compound and polymyxin B; higher = more bacterial growth (less inhibition)
Conditions: 50 µM, Mueller-Hinton broth

Structure (SMILES) | bacterial growth OD600 (polymyxin B 1 µg/mL) | bacterial growth OD600 (polymyxin B 0.75 µg/mL)
COc1ccc(Cl)cc1NC(=O)CCC1CCCN(C(=O)Cc2c(C)noc2C)C1 (centres undefined) | 0.885 | –
COC(=O)c1cc(CNC(=O)[C@@H]2C[C@@H]3C=C[C@H]2C3)cc(NS(=O)(=O)c2ccccc2Cl)c1 | – | 0.971
O=C1CN(C(=O)CC(c2ccccc2)c2ccc(Cl)cc2)CCN1 (centres undefined) | 0.899 | –
CCOC(=O)c1[nH]c(C)c(C(=O)N2CCCC(C(=O)c3ccc(OC)c(F)c3)C2)c1C (centres undefined) | 0.887 | –
CSc1ccc(CNC(=O)C2CCC(=O)N(CCN3CCOCC3)C2)cc1 (centres undefined) | 1.04 | –
CC1(CCC(=O)N2CCCC2C(=O)Nc2ccccc2Oc2cccnc2)CC1 (centres undefined) | 0.952 | –
CCOC(=O)C1(Cc2ccccc2C(F)(F)F)CCN(C(=O)c2ccc[n+]([O-])c2)CC1 | 0.879 | –
Cc1nn(C)c(Cl)c1CN1CCCC(CCC(=O)Nc2ccccc2F)C1 (centres undefined) | 0.921 | –
O=C(NCc1ccco1)N1CCc2onc(-c3ccc(C(F)(F)F)cc3)c2C1 | – | 0.776
